From PMC519002
No constants are given. Whether binding was seen depends on the method and setting. In cells and extracts the contact can be indirect. Here binding means that the protein was enriched with, or labelled near, the bait; the list need not be complete. Tags and fused reporters may be left off the sequences shown.

Sequences of proteins named here, by UniProt entry; tags and fusion partners are left off. A change or cut given only in a name is not applied to a line headed by its entry.
UniProt P40075: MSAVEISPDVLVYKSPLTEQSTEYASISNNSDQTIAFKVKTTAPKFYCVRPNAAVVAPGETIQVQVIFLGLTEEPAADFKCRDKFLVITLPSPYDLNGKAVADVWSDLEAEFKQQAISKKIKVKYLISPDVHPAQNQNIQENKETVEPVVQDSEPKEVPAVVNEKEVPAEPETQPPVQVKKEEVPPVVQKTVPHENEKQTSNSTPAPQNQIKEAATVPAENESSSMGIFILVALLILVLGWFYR

Target: T1, myc-tagged Opi1 (S. cerevisiae (endogenous locus, strains derived from CRY1)) (UniProt P21957)
T1 sequence: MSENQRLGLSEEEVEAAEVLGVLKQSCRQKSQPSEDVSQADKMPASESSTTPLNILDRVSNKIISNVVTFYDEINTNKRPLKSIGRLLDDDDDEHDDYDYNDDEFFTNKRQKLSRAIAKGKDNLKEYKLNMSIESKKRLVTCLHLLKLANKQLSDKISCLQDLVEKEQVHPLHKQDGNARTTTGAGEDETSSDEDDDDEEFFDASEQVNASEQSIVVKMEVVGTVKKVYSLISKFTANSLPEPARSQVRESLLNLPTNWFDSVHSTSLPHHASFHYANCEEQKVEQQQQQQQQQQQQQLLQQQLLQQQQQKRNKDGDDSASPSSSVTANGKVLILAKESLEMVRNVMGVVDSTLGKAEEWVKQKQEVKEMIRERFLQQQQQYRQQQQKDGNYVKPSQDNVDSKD
Test: affinity purification with mass spectrometry; microsomal fraction solubilized with 3% Triton X-100 in IP buffer; anti-myc agarose 4 h at 4 °C, ten washes; SDS-PAGE, colloidal blue stain, band excised and identified by MALDI mass spectrometry; untagged strain as control

binding: binds
Substance: Scs2 (from UniProt P40075)
